Consider five molecules from paper doi:10.1101/824425.

These are yes or no findings as the source states them, for the method shown. For some assays here: In cells and extracts the contact can be indirect. Some results given as binding are weak or reduced against the parent protein; the word gives no strength. For some assays here: Where a sequence is shown, tags or fusion partners need not be part of it.

Common to all, as to assay: co-IP
Assay [1] deals with T1, Myc-tagged HADHB (β-subunit of the mitochondrial trifunctional protein) (human) (UniProt P55084).
T1 sequence: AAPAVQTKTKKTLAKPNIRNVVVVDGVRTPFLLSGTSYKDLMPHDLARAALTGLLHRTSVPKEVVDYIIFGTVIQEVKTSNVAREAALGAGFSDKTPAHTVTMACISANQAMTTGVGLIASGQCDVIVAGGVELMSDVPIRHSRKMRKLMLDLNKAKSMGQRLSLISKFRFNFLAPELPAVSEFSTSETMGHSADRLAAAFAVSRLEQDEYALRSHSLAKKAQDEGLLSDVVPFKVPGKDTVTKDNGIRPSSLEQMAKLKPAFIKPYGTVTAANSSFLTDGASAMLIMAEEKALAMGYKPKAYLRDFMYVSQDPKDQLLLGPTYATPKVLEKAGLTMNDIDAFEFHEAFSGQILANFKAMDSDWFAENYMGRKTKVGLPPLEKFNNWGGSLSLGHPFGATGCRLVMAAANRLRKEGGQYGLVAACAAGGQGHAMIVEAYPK

For assay [2], the target named is T2, Purified, recombinantly-expressed human HADHB (AdooQ Bioscience AP4092) (human) (UniProt P55084).
T2 sequence: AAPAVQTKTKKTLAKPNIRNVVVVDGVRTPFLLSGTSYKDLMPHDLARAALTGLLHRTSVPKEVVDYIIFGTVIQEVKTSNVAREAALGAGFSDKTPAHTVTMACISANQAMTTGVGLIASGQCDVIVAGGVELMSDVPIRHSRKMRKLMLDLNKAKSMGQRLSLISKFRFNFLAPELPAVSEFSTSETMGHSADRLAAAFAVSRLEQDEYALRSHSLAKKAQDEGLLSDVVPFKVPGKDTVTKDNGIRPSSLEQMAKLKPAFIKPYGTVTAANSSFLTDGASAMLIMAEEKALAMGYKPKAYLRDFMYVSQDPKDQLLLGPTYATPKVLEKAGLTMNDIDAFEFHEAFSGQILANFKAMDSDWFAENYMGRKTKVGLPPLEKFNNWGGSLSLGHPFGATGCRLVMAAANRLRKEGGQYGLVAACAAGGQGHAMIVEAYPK

In assay [3] the target is T3, Myc-tagged HADHB (β-subunit of the mitochondrial trifunctional protein) (human), P55084.
T3 chain: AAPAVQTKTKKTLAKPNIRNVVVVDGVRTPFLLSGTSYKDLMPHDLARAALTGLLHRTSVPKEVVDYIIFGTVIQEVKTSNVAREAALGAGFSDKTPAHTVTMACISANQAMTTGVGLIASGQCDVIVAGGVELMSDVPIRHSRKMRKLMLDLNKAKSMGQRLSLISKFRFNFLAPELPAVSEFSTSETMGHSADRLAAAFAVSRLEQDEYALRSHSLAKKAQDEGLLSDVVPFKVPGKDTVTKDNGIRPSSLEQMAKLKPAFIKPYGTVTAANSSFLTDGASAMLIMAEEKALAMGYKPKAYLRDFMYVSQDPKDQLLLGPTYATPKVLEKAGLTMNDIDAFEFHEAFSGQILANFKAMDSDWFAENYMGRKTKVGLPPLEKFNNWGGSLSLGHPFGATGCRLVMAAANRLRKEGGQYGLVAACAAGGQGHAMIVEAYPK
Conditions: remark: other sources report otherwise.

B1: FLAG-MLS-viperin (residues 1-42 of viperin replaced by the mitochondrial localization sequence of human Tom70, residues 35-68) (enzyme, UniProt O94826 35-68; Q8WXG1 43-361)
chain: GLPRWQLALAVGAPLLLGAGAIYLWSRQQRRREAATKRRKQQLVLRGPDETKEEEEDPPLPTTPTSVNYHFTRQCNYKCGFCFHTAKTSFVLPLEEAKRGLLLLKEAGMEKINFSGGEPFLQDRGEYLGKLVRFCKVELRLPSVSIVSNGSLIRERWFQNYGEYLDILAISCDSFDEEVNVLIGRGQGKKNHVENLQKLRRWCRDYRVAFKINSVINRFNVEEDMTEQIKALNPVRWKVFQCLLIEGENCGEDALREAERFVIGDEEFERFLERHKEVSCLVPESNQKMKDSYLILDEYMRFLNCRKGRKDPSKSILDVGVEEAIKFSGFDEKMFLKRGGKYIWSKADLKLDW
Regarding B1, in assay [1], the binding entry is “binds”.

B2: FLAG-MLS-viperinC83A (enzyme, UniProt O94826 35-68; Q8WXG1 43-361)
chain: GLPRWQLALAVGAPLLLGAGAIYLWSRQQRRREAATKRRKQQLVLRGPDETKEEEEDPPLPTTPTSVNYHFTRQANYKCGFCFHTAKTSFVLPLEEAKRGLLLLKEAGMEKINFSGGEPFLQDRGEYLGKLVRFCKVELRLPSVSIVSNGSLIRERWFQNYGEYLDILAISCDSFDEEVNVLIGRGQGKKNHVENLQKLRRWCRDYRVAFKINSVINRFNVEEDMTEQIKALNPVRWKVFQCLLIEGENCGEDALREAERFVIGDEEFERFLERHKEVSCLVPESNQKMKDSYLILDEYMRFLNCRKGRKDPSKSILDVGVEEAIKFSGFDEKMFLKRGGKYIWSKADLKLDW
Regarding B2, the binding entry in assay [1] is listed as “binds”.

B3: ΔN-viperin (viperin lacking the first 50 residues, the N-terminal amphipathic helix) (enzyme, UniProt Q8WXG1 51-361)
chain: LVLRGPDETKEEEEDPPLPTTPTSVNYHFTRQCNYKCGFCFHTAKTSFVLPLEEAKRGLLLLKEAGMEKINFSGGEPFLQDRGEYLGKLVRFCKVELRLPSVSIVSNGSLIRERWFQNYGEYLDILAISCDSFDEEVNVLIGRGQGKKNHVENLQKLRRWCRDYRVAFKINSVINRFNVEEDMTEQIKALNPVRWKVFQCLLIEGENCGEDALREAERFVIGDEEFERFLERHKEVSCLVPESNQKMKDSYLILDEYMRFLNCRKGRKDPSKSILDVGVEEAIKFSGFDEKMFLKRGGKYIWSKADLKLDW
In the case of B3, in assay [2], the binding result was “binds”.

B4: ΔN-viperinC83A (enzyme, UniProt Q8WXG1 51-361)
chain: LVLRGPDETKEEEEDPPLPTTPTSVNYHFTRQANYKCGFCFHTAKTSFVLPLEEAKRGLLLLKEAGMEKINFSGGEPFLQDRGEYLGKLVRFCKVELRLPSVSIVSNGSLIRERWFQNYGEYLDILAISCDSFDEEVNVLIGRGQGKKNHVENLQKLRRWCRDYRVAFKINSVINRFNVEEDMTEQIKALNPVRWKVFQCLLIEGENCGEDALREAERFVIGDEEFERFLERHKEVSCLVPESNQKMKDSYLILDEYMRFLNCRKGRKDPSKSILDVGVEEAIKFSGFDEKMFLKRGGKYIWSKADLKLDW
Regarding B4, the binding entry in assay [2] is “binds”.

B5: WT-viperin (localizes to the ER membrane), Q8WXG1 1-361 (enzyme)
chain: MWVLTPAAFAGKLLSVFRQPLSSLWRSLVPLFCWLRATFWLLATKRRKQQLVLRGPDETKEEEEDPPLPTTPTSVNYHFTRQCNYKCGFCFHTAKTSFVLPLEEAKRGLLLLKEAGMEKINFSGGEPFLQDRGEYLGKLVRFCKVELRLPSVSIVSNGSLIRERWFQNYGEYLDILAISCDSFDEEVNVLIGRGQGKKNHVENLQKLRRWCRDYRVAFKINSVINRFNVEEDMTEQIKALNPVRWKVFQCLLIEGENCGEDALREAERFVIGDEEFERFLERHKEVSCLVPESNQKMKDSYLILDEYMRFLNCRKGRKDPSKSILDVGVEEAIKFSGFDEKMFLKRGGKYIWSKADLKLDW
B5: the binding entry in assay [3] is “no binding”.
